From article PMC10319324
Results are given in words; binding and its absence hold for the method and conditions named.

Molecular target: human PI31 C-terminal domain, residues 152-271 (human) (UniProt Q92530)
Test: cross-linking; 23 μM protein in 20 mM Hepes (pH 7.8), 20 mM NaCl, 0.05% glutaraldehyde for 15 min on ice; SDS-PAGE and blot against PI31; both purified

B1: human PI31 C-terminal domain, residues 152-271 (domain or fragment, UniProt Q92530 152-271)
chain: SSPHREFPPATAREVDPLRIPPHHPHTSRQPPWCDPLGPFVVGGEDLDPFGPRRGGMIVDPLRSGFPRALIDPSSGLPNRLPPGAVPPGARFDPFGPIGTSPPGPNPDHLPPPGYDDMYL
binding: no binding (tested: 23 μM)
